The nature of the data set: Iron sulphide dissolution test.

On to “tetrakis(hydroxymethyl)phosphonium sulphate [Unformulated THPS]”, for which the “% wt loss” value (2 g iron sulphide field scale, stirred 20 hrs at 50° C.) turned out to be 63%. For the setting “filtered solution after 20 hrs at 50° C., Hach DR2000 spectrophotometer”, the “Fe^2+ concentration in solution” value came out at 3120 ppm.

(Values after patent US10178867B2, “Treating microbe contamination in water with THP salts and polymeric biopenetrants” (priority 2004, dated 2019).)
